Data taken from PubChem BioAssay AID651640 (Broad Institute, 2012).
Values joined by “and” are separate entries in the source; they are usually repeats but may differ in a detail not shown here. Equal entries are not always repeated. About 6,000 (1.7%) of roughly 350,000 compounds were called active. The shares of active, inactive and inconclusive entries below differ from those in the screen. Rule as the data show it: active = CPE inhibition above about 20% (passing the limit was not always enough); inconclusive = no clear call, values can overlap the other calls; tested in BHK-21 cells.

Test: protection of cells from dengue 2 killing – plate reader, single concentration, primary screen (AID 651640);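 also: 0% = median of neutral control wells and 100% = median of positive control wells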
Settings: DENV2-infected cells, cytopathic effect rescue, at 9.99 µM, stronger effect = higher value

Row | SMILES | CPE inhibition
1 | COc1ccc(NC(=O)N(C)C[C@H]2Oc3ccc(NC(=O)Cc4cn(C)c5ccccc45)cc3C(=O)N([C@H](C)CO)C[C@@H]2C)cc1 | inconclusive: 41.6%
2 | CN1C(=O)c2cc(NC(=O)NC3CCCC3)ccc2OC[C@H]2O[C@H](CC(=O)NC3CCC3)CC[C@@H]21 | active: 61.4%
3 | N#C[C@@H]1[C@@H](c2ccc(/C=C/c3ccccc3)cc2)[C@@H](CO)N1C(=O)C1CCCC1 | active: 26.4%
4 | Oc1ccc(-c2nc3ccccc3nc2-c2ccccc2)cc1 | inconclusive: 24.2%
5 | CCOC(=O)[C@H]1[C@H]2COc3ccc(Br)cc3[C@@H]2N2C(=O)CN(Cc3ccco3)C(=O)[C@@]12C | active: 50.1%
6 | CO[C@H]1CN(C)C(=O)c2cc(NC(=O)Nc3ccccc3Cl)ccc2OC[C@@H](C)NC[C@H]1C | active: 20.4%
7 | COc1ccc([C@@H]2[C@@H]3C(=O)N(C(C)(C)C)C(=O)[C@@H]3[C@]3(CC(C)C)C(=O)N(c4ccccc4)C(=O)N23)cc1 | inactive: -4.83%
8 | CC(C)C(=O)N1CCN(c2nc3ccc(Cl)cc3s2)CC1 | inconclusive: 21.5%
9 | C/C=C/c1ccc([C@H]2[C@@H](CO)N(CC3CCCC3)C23CN(C(=O)CC)C3)cc1 | active: 28.8%
10 | COc1ccc(C(=O)OCC(=O)NC23CC4CC(CC(C4)C2)C3)c(OC)c1OC | inconclusive: 23.3%
11 | N#C[C@H]1[C@H](c2ccc(-c3cccc(F)c3)cc2)[C@@H](CO)N1C(=O)CN1CCOCC1 | inconclusive: 52.7%
12 | C#CCNC(=O)C1=C[C@H](C2CC2)C[C@H](OCCCCO)O1 | inconclusive: 31.1%
13 | CC12CCC(=O)N1C(C(=O)Nc1ccc(S(=O)(=O)N3CCCCC3)cc1)CS2 (configuration not stated) | active: 32%
14 | CCc1ccc2c(F)cccc2n1 | active: 60.1%
15 | CC1(C(=O)NS(=O)(=O)c2ccc(C#N)cc2)CCN1C(=O)CC1CC1 (configuration not stated) | inconclusive: 21.1%
16 | O=C1CCC(C(=O)N2CCC(O)(c3ccccc3)CC2)CN1CCc1ccccc1 (configuration not stated) | inconclusive: 36.9%
17 | COc1ccc2c3c(n(C)c2c1)[C@H](CO)N(C(=O)C1CC1)CC31CCN(C(=O)c2ccncc2)CC1 | active: 31.9%
18 | C[C@@]12C(=O)N(CC3CC3)CC(=O)N1[C@H](C1CC1)[C@@H]1C(=O)N(c3ccccc3)C(=O)[C@@H]12 | inconclusive: 20.8%
19 | CN(c1ccc(NC(=O)Cc2cn(C)c3ccccc23)cc1)c1ccccn1 | inconclusive: 20.1%
20 | CC(=O)NC[C@@H]1[C@H](c2ccc(-c3cccnc3)cc2)[C@H](CO)N1C(=O)C1CCC1 | inconclusive: 27.5%
21 | O=C(Nc1ccccc1F)N1[C@@H]2CNC[C@H]1C2c1ccc(-c2ccccc2)cc1 (some centres not stated) | inactive: -2.04% and inactive: -3.96%
22 | Cc1nc(NC(=O)CC(C)C)sc1-c1csc(Nc2ccc(Cl)cc2)n1 | inconclusive: 74.3%
23 | O=C(CCNC(=O)c1ccc(Br)cc1)NCCCN1CCOCC1 | inconclusive: 70.7%
24 | COc1cccc(N/N=C(\C#N)S(=O)(=O)C(C)(C)C)c1 | inactive: -1.29%

Arranged by SMILES length (rising): some entries from above
Row | SMILES | CPE inhibition
14 | CCc1ccc2c(F)cccc2n1 | active: 60.1%
22 | Cc1nc(NC(=O)CC(C)C)sc1-c1csc(Nc2ccc(Cl)cc2)n1 | inconclusive: 74.3%
10 | COc1ccc(C(=O)OCC(=O)NC23CC4CC(CC(C4)C2)C3)c(OC)c1OC | inconclusive: 23.3%

The list goes on.

Row | SMILES | CPE inhibition
25 | CCCCN1CC[C@H]2C=CC[C@@H](C(=O)N3CCN(c4ccccc4)CC3)[C@H]2C1=O | inconclusive: 21.3%
26 | COc1ccc(S(=O)(=O)N2CCNCC2)cc1OC | inactive: -1.91%
27 | COC(=O)[C@]12C[C@H](CC(=O)N3CCOCC3)C(=O)N(Cc3ccccc3)C1=C[C@H](C(C)(C)C)O[C@@H]2C | inconclusive: 38.7%
28 | COCC(=O)Nc1ccc2c(c1)[C@H]1C[C@@H](CC(=O)NC3CCCC3)O[C@@H](CO)[C@H]1O2 | inconclusive: 25.7%
29 | O=C(Nc1cccs1)Nc1c(F)c(F)cc(F)c1F | inconclusive: 26.6%
30 | NC(=O)c1ccccc1NC(=O)CC1(CC(=O)O)CCCC1 | inactive: 1.18%
31 | CC(C)CC#Cc1ccc2c(c1)O[C@H](CN(C)C(=O)c1ccccc1)[C@@H](C)CN([C@@H](C)CO)S2(=O)=O | inactive: -3.87%
32 | O=C(NC1CCCCCCC1)C1CCC(CNc2c(N3CCCC3)c(=O)c2=O)CC1 (configuration not stated) | inconclusive: 29.2%
33 | Cc1cc2nc(-c3ccc[nH]c3=O)n(Cc3cccc(F)c3)c2cc1C | inactive: 2.68%
34 | CCn1c(C(C)NC(=O)c2cccs2)n[nH]c1=S (configuration not stated) | inconclusive: 68.1%
35 | OC[C@H]1[C@@H]2c3ccccc3NC[C@@H]2N1Cc1ccccc1Cl | active: 32.5%
36 | CCCNC(=O)Nc1ccc2c(c1)OC[C@@H](C)N(C(=O)C1CC1)C[C@H](C)[C@H](OC)CN(C)C2=O | inconclusive: 49.7%
37 | CCC(=O)N1[C@H](CO)[C@H]2c3ccccc3N(S(=O)(=O)c3ccc(F)cc3)C[C@H]21 | inactive: 2.46%
38 | Cc1ccc(S(=O)(=O)Nc2ccc3c(c2)C(=O)N([C@@H](C)CO)C[C@@H](C)[C@@H](CN(C)C(=O)NC2CCCCC2)O3)cc1 | inactive: -7.8%
39 | COc1cccc(CNc2nc3cc(-c4ccccc4CO)sc3c(=O)n2C)c1 | inconclusive: 48.9%
40 | C[C@@H]1CN([C@H](C)CO)C(=O)c2cc(NC(=O)Nc3ccc4c(c3)OCO4)ccc2O[C@@H](C)CCCCO[C@@H]1CN(C)C(=O)C1CCCCC1 | inactive: 8.64%
41 | OC(C#CCN1CCCC1)(c1ccccc1)c1cccnc1 (configuration not stated) | inactive: -2.43%
42 | O=C(c1ccccc1F)N1CC(=O)N2[C@H](C1)[C@H](c1ccc(-c3cccnc3)cc1)[C@@H]2CO | inactive: 0.0265%
43 | CCC(=O)Nc1ccc2c(c1)OC[C@@H](C)N(C(=O)Cc1cccnc1)C[C@@H](C)[C@H](OC)CN(C)C2=O | active: 27.1%
44 | NC(=S)Nc1ccc(F)c(F)c1F | inconclusive: 20.6%
45 | COc1ccc(CCNC(=O)COC(=O)c2cccn2C)cc1 | inactive: -1.25%
46 | CC(C)[C@H](NC(=O)N1CC(=O)Nc2ccccc21)C(=O)N1CCC[C@@H]1C(=O)O | inconclusive: 58.2%
47 | COc1cccc(S(=O)(=O)Nc2ccc3c(c2)[C@H]2C[C@H](CC(=O)N[C@@H](C)c4ccccc4)O[C@H](CO)[C@H]2O3)c1 | inconclusive: 25.1%
